Assay results: publication PMC7862700
Only a part is listed here, and it is no random draw. For part of these data: At the low end of the ranking, values are background and their order means little. The list shows a part of the results. For part of these data: The source does not settle which construct or isoform was used.

Amino acid sequences for entries named in this document (tags omitted). A change or cut given only in a name is not applied to a line headed by its entry.
UniProt P32519: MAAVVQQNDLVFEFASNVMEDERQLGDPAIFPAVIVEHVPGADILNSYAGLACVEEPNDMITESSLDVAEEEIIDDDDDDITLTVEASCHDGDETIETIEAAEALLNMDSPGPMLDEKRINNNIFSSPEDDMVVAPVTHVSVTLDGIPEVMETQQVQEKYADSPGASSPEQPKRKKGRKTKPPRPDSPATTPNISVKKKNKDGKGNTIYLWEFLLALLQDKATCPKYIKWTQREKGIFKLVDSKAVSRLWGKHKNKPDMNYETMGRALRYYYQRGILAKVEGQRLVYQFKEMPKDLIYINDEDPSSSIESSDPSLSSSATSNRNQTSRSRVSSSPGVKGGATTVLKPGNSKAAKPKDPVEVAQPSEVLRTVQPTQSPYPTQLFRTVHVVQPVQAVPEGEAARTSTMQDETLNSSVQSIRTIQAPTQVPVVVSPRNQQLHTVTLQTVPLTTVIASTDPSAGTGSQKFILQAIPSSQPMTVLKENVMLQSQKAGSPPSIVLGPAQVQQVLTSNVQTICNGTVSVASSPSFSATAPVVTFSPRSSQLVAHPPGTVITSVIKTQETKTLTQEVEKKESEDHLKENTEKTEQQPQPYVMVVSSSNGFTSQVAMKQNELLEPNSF
UniProt P50549: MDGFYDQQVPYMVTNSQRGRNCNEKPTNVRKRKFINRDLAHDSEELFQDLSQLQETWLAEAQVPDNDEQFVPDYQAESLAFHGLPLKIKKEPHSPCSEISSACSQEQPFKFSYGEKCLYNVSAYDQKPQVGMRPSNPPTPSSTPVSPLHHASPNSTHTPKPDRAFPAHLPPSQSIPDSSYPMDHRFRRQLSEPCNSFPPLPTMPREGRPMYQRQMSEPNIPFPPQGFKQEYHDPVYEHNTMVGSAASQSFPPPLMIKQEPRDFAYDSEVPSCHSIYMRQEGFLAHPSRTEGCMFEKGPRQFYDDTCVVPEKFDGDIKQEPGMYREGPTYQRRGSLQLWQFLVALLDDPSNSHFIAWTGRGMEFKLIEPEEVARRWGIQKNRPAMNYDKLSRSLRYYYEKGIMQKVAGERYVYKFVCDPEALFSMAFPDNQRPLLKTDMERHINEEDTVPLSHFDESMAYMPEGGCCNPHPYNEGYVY

Experiments:
Assay in all cases: DAPPL (digital affinity profiling via proximity ligation, sequencing)
Settings in all cases: 10 mM Tris-HCl pH 7.5, 50 mM NaCl, 1 mM DTT, 4% glycerol, room temperature, 30 min; GST-TFs on glutathione beads, 16-mer random dsDNA library, 0.1% …; high values mean tight binding; double strand, one strand shown; scale: fold enrichment (6-mer frequency, TF over GST control)
ERG = biological target: T1, ERG (UniProt P11308)
T1 sequence: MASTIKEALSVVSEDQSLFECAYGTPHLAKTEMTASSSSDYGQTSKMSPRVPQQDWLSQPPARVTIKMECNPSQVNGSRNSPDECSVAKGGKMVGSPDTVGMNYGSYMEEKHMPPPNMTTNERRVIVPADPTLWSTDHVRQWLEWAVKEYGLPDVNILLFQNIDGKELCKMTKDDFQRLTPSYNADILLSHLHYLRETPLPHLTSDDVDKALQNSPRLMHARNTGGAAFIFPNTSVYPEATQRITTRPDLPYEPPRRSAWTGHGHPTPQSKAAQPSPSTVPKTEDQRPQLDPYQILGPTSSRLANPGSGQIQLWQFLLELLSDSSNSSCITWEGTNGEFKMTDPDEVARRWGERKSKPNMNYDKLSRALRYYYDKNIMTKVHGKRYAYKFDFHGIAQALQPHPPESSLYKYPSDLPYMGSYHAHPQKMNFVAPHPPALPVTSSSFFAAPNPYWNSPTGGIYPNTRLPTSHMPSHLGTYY

ELF1 = ELF1 (UniProt P32519)
ELK4 = biological target: T2, ELK4 (UniProt P28324-2)
T2 sequence: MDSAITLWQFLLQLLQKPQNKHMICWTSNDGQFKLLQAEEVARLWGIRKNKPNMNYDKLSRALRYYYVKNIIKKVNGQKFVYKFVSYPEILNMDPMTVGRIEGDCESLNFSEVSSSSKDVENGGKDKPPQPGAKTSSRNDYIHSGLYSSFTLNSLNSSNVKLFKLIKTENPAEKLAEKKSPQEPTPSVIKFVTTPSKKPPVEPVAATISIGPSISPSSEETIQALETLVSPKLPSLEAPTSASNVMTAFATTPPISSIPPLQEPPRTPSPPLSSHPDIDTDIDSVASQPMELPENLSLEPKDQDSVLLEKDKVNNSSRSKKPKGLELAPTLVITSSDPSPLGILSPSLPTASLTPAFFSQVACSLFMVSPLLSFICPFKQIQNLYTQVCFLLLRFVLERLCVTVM

ETV4 = biological target: T3, ETV4 (UniProt P43268)
T3 sequence: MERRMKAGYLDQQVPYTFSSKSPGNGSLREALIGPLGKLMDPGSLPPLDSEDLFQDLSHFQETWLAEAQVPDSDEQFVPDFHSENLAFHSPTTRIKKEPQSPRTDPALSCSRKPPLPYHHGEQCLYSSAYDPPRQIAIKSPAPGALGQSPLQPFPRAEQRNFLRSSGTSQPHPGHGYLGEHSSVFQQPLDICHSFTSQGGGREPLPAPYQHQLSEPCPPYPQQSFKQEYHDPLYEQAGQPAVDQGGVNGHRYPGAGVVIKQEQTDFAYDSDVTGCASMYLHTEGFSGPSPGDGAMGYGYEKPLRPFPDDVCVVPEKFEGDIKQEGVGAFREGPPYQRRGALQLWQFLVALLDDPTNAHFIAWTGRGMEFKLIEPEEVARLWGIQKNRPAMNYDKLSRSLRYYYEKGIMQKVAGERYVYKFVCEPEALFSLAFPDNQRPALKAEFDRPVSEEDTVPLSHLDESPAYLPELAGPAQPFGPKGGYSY

ETV1 = ETV1 (UniProt P50549)
ERF = biological target: T4, ERF (UniProt P50548)
T4 sequence: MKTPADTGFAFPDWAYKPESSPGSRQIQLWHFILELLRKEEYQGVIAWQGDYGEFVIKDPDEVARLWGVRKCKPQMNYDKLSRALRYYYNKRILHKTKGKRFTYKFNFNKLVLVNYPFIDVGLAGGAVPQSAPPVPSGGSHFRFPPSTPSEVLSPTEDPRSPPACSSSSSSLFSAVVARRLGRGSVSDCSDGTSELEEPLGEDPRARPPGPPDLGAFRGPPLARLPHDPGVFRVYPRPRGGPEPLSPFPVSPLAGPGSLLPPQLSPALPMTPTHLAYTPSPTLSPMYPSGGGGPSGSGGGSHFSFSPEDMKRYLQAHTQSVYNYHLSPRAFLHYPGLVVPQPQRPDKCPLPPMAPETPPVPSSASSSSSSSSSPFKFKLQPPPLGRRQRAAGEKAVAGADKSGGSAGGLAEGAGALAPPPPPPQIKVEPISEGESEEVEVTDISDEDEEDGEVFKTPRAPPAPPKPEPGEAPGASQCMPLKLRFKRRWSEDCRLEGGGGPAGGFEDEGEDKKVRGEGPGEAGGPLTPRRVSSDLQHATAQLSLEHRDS

Sequence | binding signal (ERG) | binding signal (ELF1) | binding signal (ELK4) | binding signal (ETV4) | binding signal (ETV1) | binding signal (ERF)
GCGACG | 0.948 | 0.912 | 0.886 | 0.986 | 0.914 | 0.996
GGCAGC | 0.984 | 0.94 | 0.959 | 0.954 | 0.916 | 0.872
TGCGTC | 0.953 | 0.926 | 0.864 | 0.954 | 0.974 | 0.916
AAACAG | 0.995 | 0.967 | 1.04 | 0.922 | 0.983 | 0.953
CCGTTA | 0.951 | 0.902 | 0.91 | 0.954 | 0.867 | 0.975
AGATTA | 0.958 | 0.986 | 1.05 | 0.989 | 0.994 | 0.999
AATCGT | 0.902 | 0.833 | 0.94 | 0.894 | 0.909 | 0.84
ACCCGT | 0.908 | 0.883 | 0.895 | 0.967 | 0.907 | 0.942
CTAGGA | 0.872 | 0.909 | 0.937 | 0.884 | 0.893 | 0.87
GAATGC | 0.937 | 0.995 | 0.91 | 0.963 | 0.917 | 1.04
TGGCGT | 0.994 | 0.931 | 0.912 | 0.932 | 0.923 | 0.964
GTGACT | 0.916 | 0.909 | 0.9 | 0.987 | 0.946 | 0.856
AAGGGA | 0.922 | 0.862 | 0.812 | 0.856 | 0.935 | 0.843
GTCTGG | 0.896 | 0.833 | 0.774 | 0.874 | 0.873 | 0.872
TCGAGA | 0.571 | 0.621 | 0.571 | 0.633 | 0.598 | 0.616
TAAGGC | 0.867 | 0.897 | 0.944 | 0.862 | 0.957 | 0.904
AGGTTC | 0.852 | 0.87 | 0.843 | 0.854 | 0.844 | 0.825
GGATAA | 0.805 | 0.792 | 0.761 | 0.775 | 0.819 | 0.759
TCGAGT | 0.864 | 0.954 | 0.934 | 1.05 | 0.92 | 0.948
GCGAAG | 0.926 | 0.955 | 0.989 | 0.926 | 0.994 | 0.799
ATTAGA | 0.899 | 0.939 | 0.922 | 0.883 | 0.93 | 0.929
GACCGC | 0.956 | 0.959 | 0.971 | 0.979 | 0.875 | 0.989
TCCAGT | 0.664 | 0.663 | 0.696 | 0.674 | 0.652 | 0.687
ATCGCG | 0.931 | 0.976 | 1 | 0.892 | 0.987 | 0.885

Individual results from the list.
binding signal (ETV1), CTAGGA is entered as 0.893
binding signal (ERF), AAGGGA is entered as 0.843

(cont.)

Sequence | binding signal (ERG) | binding signal (ELF1) | binding signal (ELK4) | binding signal (ETV4) | binding signal (ETV1) | binding signal (ERF)
GCGATC | 0.999 | 1.06 | 1.13 | 1.04 | 1.03 | 0.931
GCAGAA | 0.859 | 0.872 | 0.869 | 0.827 | 0.985 | 0.964
CGTCGA | 0.863 | 0.838 | 0.878 | 0.828 | 0.89 | 0.893
TCCAGA | 0.888 | 0.869 | 0.9 | 0.894 | 0.903 | 0.88
AGTTGC | 0.939 | 0.931 | 1.02 | 0.975 | 0.972 | 0.877
TTGGAT | 0.959 | 1.01 | 1.04 | 1.05 | 0.976 | 0.925
GATTAG | 0.856 | 0.954 | 0.923 | 0.83 | 0.912 | 0.926
GGGCAT | 0.921 | 0.848 | 0.858 | 0.917 | 0.887 | 0.905
GGTCCA | 0.875 | 0.885 | 0.957 | 0.921 | 0.821 | 0.889
GAGAAT | 0.786 | 0.761 | 0.763 | 0.712 | 0.687 | 0.687
AACGGT | 0.974 | 0.923 | 0.993 | 0.907 | 0.99 | 0.974
ACATGA | 0.977 | 0.993 | 0.968 | 0.979 | 0.936 | 0.895
CCAGAT | 0.94 | 0.91 | 0.937 | 0.824 | 0.953 | 0.929
CATAGA | 0.875 | 0.933 | 0.933 | 0.869 | 0.943 | 0.926
TTAGTC | 0.791 | 0.803 | 0.698 | 0.806 | 0.731 | 0.796
AGCATA | 0.97 | 0.954 | 0.956 | 0.914 | 0.857 | 0.949
CTGGCG | 0.831 | 0.839 | 0.875 | 0.781 | 0.849 | 0.875
AGAGAA | 0.849 | 0.841 | 0.706 | 0.798 | 0.825 | 0.827
TGGATT | 1.05 | 0.965 | 1.11 | 1.01 | 0.917 | 0.983
ATGGGA | 0.875 | 0.981 | 0.889 | 0.994 | 0.99 | 0.897
ACAGAA | 0.892 | 0.946 | 0.957 | 0.881 | 0.921 | 0.896
AGAACT | 0.902 | 0.963 | 0.873 | 0.954 | 0.929 | 0.8
ATTGTG | 0.951 | 0.899 | 0.926 | 0.917 | 0.741 | 1.06

Looked up one by one from the list above (two):
Sequence | binding signal (ERG) | binding signal (ELF1) | binding signal (ELK4) | binding signal (ETV4) | binding signal (ETV1) | binding signal (ERF)
CGTCGA | 0.863 | 0.838 | 0.878 | 0.828 | 0.89 | 0.893
GCAGAA | 0.859 | 0.872 | 0.869 | 0.827 | 0.985 | 0.964
